Values quoted from earlier work in patent publication US20220184102A1, “COMPOSITIONS AND METHODS FOR TREATING AGE-RELATED MACULAR DEGENERATION” (priority 2019, published 2022).
At least one structure is not confirmed: it was looked up by name or label, or the drawing left a doubt.

What was measured:
[1] = test system: laser induced choroidal neovascularization (CNV); details: cited from earlier work
early dementia = details: doxycycline 200 mg orally daily, alone or with rifampin 300 mg; cited from earlier work
[2] = test system: early seropositive rheumatoid arthritis; details: 100 mg or 20 mg twice-daily plus MTX, two years; cited from earlier work
chronic periodontitis = details: 20 mg twice daily, two years, treatment versus control; cited from earlier work
[3] = test system: retinal degeneration following light damage; details: murine model; cited from earlier work
human RPE cells = details: in vitro; cited from earlier work
diabetic macular edema = details: oral minocycline; cited from earlier work
[4] = test system: neovascular exudative AMD; details: 18 patients; oral minocycline combined with reduced-fluence PDT, intravitreal ranibizumab, intravitreal dexamethasone; cited from earlier work
non-exudative dry AMD = details: one year course of treatment, 10 patients, anecdotal, FIG. 2; cited from earlier work
[5] = test system: photoreceptor degeneration; details: mouse model of hemorrhagic neovascular AMD; cited from earlier work

| Compound | reduction in the volume of laser induced CNV compared to controls ([1]; mice, 0.5 to 50 mg/kg oral doxycycline in water) | volume of acute laser induced choroidal neo-vascularization ([1]; oral, all doses, FIG. 1) | effects on cognition or functioning (early dementia) | improvement in RA severity [2] | serum inflammatory biomarkers hs-CRP and MMP-9 (chronic periodontitis) | retinal degeneration following light damage to the retina [3] | protection against oxidative damage from light exposure and oxidative stress (human RPE cells) | central macular thickness (diabetic macular edema) | eyes with stable vision maintained [4] | visual acuity (non-exudative dry AMD) | photoreceptor degeneration [5] |
| --- | --- | --- | --- | --- | --- | --- | --- | --- | --- | --- | --- |
| C[C@H]1c2cccc(O)c2C(=O)C2=C(O)[C@]3(O)C(=O)C(C(N)=O)=C(O)[C@@H](N(C)C)[C@@H]3[C@@H](O)[C@@H]21 [doxycycline] | > 50% | inhibits | no beneficial effects | greater than the improvement exhibited by the placebo-control group | statistically significant reduction | – | – | – | – | – | – |
| CN(C)c1ccc(O)c2c1C[C@H]1C[C@H]3[C@H](N(C)C)C(O)=C(C(N)=O)C(=O)[C@@]3(O)C(O)=C1C2=O [minocycline] | – | – | – | – | – | prevent retinal degeneration | protected | possible effect in reduction of central macular thickness | 89% | improvement of visual acuity | attenuate photoreceptor degeneration |
| CN(C)[C@@H]1C(O)=C(C(N)=O)C(=O)[C@@]2(O)C(O)=C3C(=O)c4c(O)cccc4[C@@](C)(O)[C@H]3C[C@@H]12 [tetracycline] | – | – | – | – | – | – | – | – | – | improvement of visual acuity | – |
